Drawing on US20250170263A1, this text covers binding for 1 molecule.

The target of test [1] is wt EGFR overexpressed on the surface of A431 (A-431, human epidermoid carcinoma) cells (human) (UniProt P00533). As to the kind of experiment: FACS on A431 cells.
Test [2] shares this target. As to the kind of experiment: condition: about 1000 nM (last point, between the 100 and 10000 ticks of the log axis); FACS on A-431 cells, 1 h at 4 C, AlexaFluor 488 secondary antibody, geometric mean fluorescence.

Results are given in words; binding and its absence hold for the method and conditions named.

B1: MSL109 hIgG (antibody, V domains shown)
VH: EEQVLESGGGLVKPGGSLRLSCAASGFTFSPYSVFWVRQAPGKGLEWVSSINSDSTYKYYADSVKGRFTISRDNAENSIFLQMNSLRAEDTAVYYCARDRSYYAFSSGSLSDYYYGLDVWGQGTTVIVSS
VL: DIVMTQSPLSLSVTPGEPASISCRSSQSLLHTNGYNYLDWYVQKPGQSPQLLIYLASNRASGVPDRFSGSGSGTDFTLKISRVETEDVGVYYCMQALQIPRTFGQGTKVEIKR
In the case of B1, the binding result in test [1] and in test [2] was “no binding” throughout.
